Reference: PubChem BioAssay AID504847 (National Center for Advancing Translational Sciences (NCATS), 2011)
In all, about 400,000 compounds went through this assay and about 3,700 (0.93%) were called active. The shares of active, inactive and inconclusive entries below differ from those in the screen. Calls come from the whole dose curve; as a rule, active = well fitted inhibition curve with a large enough effect; inconclusive = small, poorly fitted or top-dose-only effect, or another doubt; inactive = no such curve, though single readings can be large or run the other way. A potency beside an inconclusive call is a rough fit, not a confirmed value.

Chains of the proteins cited; added tags and fusions are not shown. Lines headed by an entry give the natural chain unless they say otherwise; changes in a name come on top.
UniProt P11473: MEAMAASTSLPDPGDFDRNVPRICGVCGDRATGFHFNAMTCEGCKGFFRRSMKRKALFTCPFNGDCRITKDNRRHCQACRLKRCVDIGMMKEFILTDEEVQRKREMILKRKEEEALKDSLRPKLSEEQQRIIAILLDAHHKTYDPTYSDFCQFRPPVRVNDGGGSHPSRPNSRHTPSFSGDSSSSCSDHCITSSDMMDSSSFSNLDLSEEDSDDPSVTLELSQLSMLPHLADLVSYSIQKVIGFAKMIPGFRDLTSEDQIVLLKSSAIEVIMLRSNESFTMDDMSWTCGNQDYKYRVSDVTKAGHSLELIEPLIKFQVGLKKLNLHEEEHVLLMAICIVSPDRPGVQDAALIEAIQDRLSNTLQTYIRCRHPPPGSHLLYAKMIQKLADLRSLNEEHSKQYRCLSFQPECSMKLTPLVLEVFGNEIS

What follows are compounds tested against Vitamin D3 receptor (Homo sapiens) (UniProt P11473) (assay: Inhibitors of the vitamin D receptor (VDR): qHTS). Conditions: VDR-SRC2-3 peptide fluorescence polarization, 2 h; max response, negative = inhibition: hits give low values.
In short: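 Two reagent solutions held at 4 deg C in the dark were dispensed, compounds pinned at 23 nl, and the mixture incubated 2 h at room temperature. Read-out: fluorescence polarization of VDR–SRC2-3 peptide binding.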
% is set by controls: 0 for no effect and ±100 for the full control effect; potency is the fitted concentration of half-maximal effect.

Compound | max response, negative = inhibition | Potency
COCCCNC(=O)c1cc2n(n1)CCCN(Cc1ccc(C)cc1)C2=O | inactive: -2.66% | 
COC(=O)n1c(SC)nc2ccccc21 | inactive: -5.58% | 
CCCCNS(=O)(=O)c1ccc(OCC(=O)OC)cc1 |  | inconclusive: 79.4 µM [inhibitor, single point]
O=[N+]([O-])/C(C(Cl)=C(Cl)Cl)=C(/NC1CC1)Sc1ccccc1 |  | inconclusive: 28.2 µM [inhibitor, partial curve, poor fit]
CN1C=CC=C/C1=C1\SC(=S)N(c2ccccc2)C1=O |  | inconclusive: 79.4 µM [inhibitor, single point]
CCOc1ccc(N2C(=O)S/C(=C\c3cccn3C)C2=O)cc1 | inactive: 5.46% | 
CN(C)NC(=S)NC(=O)C12CC3CC(CC(C3)C1)C2 |  | inconclusive: 79.4 µM [inhibitor, partial curve, poor fit]
CCOc1cc(C=C(C#N)C#N)ccc1Oc1ccc([N+](=O)[O-])cn1 |  | inconclusive: 28.2 µM [inhibitor, full curve]
CCN(CC)c1ccc(NC(=O)COc2ccccc2C#N)cc1S(=O)(=O)Nc1ccccc1OC |  | active: 79.4 µM
CCCc1cc(=O)oc2cc(OCc3ccc(OC)cc3)c(Cl)cc12 | inactive: 23.5% | 
CC(C)(C)NC(=O)CSc1nc(-c2ccccc2)c(-c2ccccc2)[nH]1 | inactive: -0.61% | 
CC(NC(=O)COC(=O)c1ccc2c(c1)S(=O)(=O)N=C1CCCCCN12)C12CC3CC(CC(C3)C1)C2 (stereo not given) |  | inconclusive: 100 µM [inhibitor, partial curve, poor fit]
Cn1/c(=N\NC(=O)c2ccccc2Cl)sc2ccccc21 |  | inconclusive: 79.4 µM [inhibitor, partial curve, poor fit]
CC(=O)Nc1ccn(C2OC(C(COC(C)=O)NC(=O)C(C)NC(=O)OC(C)(C)C)C(OC(C)=O)C2OC(C)=O)c(=O)n1 (stereo not given) | inactive: -5.4% | 
COc1cccc(OC)c1C(=O)OCC(=O)N(C)c1ccccc1 |  | inconclusive: 79.4 µM [inhibitor, partial curve]
N#CCSc1nc2[nH]ncc2c(=O)n1-c1ccccc1Br |  | inconclusive: 28.2 µM [inhibitor, single point]
CC(Sc1nnc(-c2ccc(Cl)cc2Cl)n1Cc1ccccc1)C(=O)Nc1nccs1 (stereo not given) |  | inconclusive: 79.4 µM [inhibitor, single point]
O=S(=O)(c1ccc2ccccc2c1)n1nc(-c2ccco2)nc1NCc1ccc(F)cc1 | inactive: 2.33% | 
Cn1c(SCC(=O)c2cc3ccccc3o2)nnc1-c1ccccc1 |  | inconclusive: 79.4 µM [inhibitor, partial curve, poor fit]
COc1ccc(NC(=O)CCc2ccccc2)cc1NC(=O)c1ccco1 | inactive: 8.72% | 
O=C(CSc1nnc(Cc2cccs2)n1Cc1ccco1)Nc1cc(Cl)cc(Cl)c1 | inactive: 0.409% | 
CN1CCN(C(c2ccc(Br)cc2)c2cc(Cl)c3cccnc3c2O)CC1 (stereo not given) |  | inconclusive: 50.1 µM [inhibitor, partial curve, poor fit]

Entries from the list above containing bromine:
Compound | max response, negative = inhibition | Potency
N#CCSc1nc2[nH]ncc2c(=O)n1-c1ccccc1Br |  | inconclusive: 28.2 µM [inhibitor, single point]
CN1CCN(C(c2ccc(Br)cc2)c2cc(Cl)c3cccnc3c2O)CC1 (stereo not given) |  | inconclusive: 50.1 µM [inhibitor, partial curve, poor fit]

Later entries:

Compound | max response, negative = inhibition | Potency
O=C1/C(=C/c2cccnc2)SC(=S)N1CCc1ccccc1 |  | inconclusive: 50.1 µM [inhibitor, partial curve, poor fit]
COc1cccc2cc(C(=O)NCCc3ccccc3)oc12 |  | inconclusive: 89.1 µM [inhibitor, single point]
O=C1c2ccccc2-c2onc3ccc(Oc4ccccc4)c1c23 |  | inconclusive: 79.4 µM [inhibitor, single point]
CCc1ccccc1N(CC)C(=O)C(=O)Nc1ccc2nc3n(c(=O)c2c1)CCCCC3 | inactive: 2.05% | 
CCOC(=S)SCC(=O)Nc1ncc(C)s1 | inactive: -9.29% | 
O=C(COC(=O)[C@H](Cc1ccccc1)NS(=O)(=O)c1ccccc1F)NC1CCCCC1 | inactive: 7.96% | 
O=C(O)c1ccccc1NS(=O)(=O)c1ccc(NNC(=S)Nc2ccc(OC(F)F)cc2)c([N+](=O)[O-])c1 |  | inconclusive: 44.7 µM [inhibitor, partial curve, poor fit]
O=C(CCN1C(=O)S/C(=C\c2ccccc2)C1=O)Nc1ccc(O)cc1C(=O)O |  | inconclusive: 89.1 µM [inhibitor, single point]
O=C(CSc1nnc(SCc2ccccc2)s1)N/N=C/C=C/c1ccco1 | inactive: -21.1% | 
CC(NC(=O)/C(C#N)=C/c1ccc(Cl)c([N+](=O)[O-])c1)c1ccccc1 (stereo not given) |  | inconclusive: 22.4 µM [inhibitor, single point]
O=C(N/N=C/C(Cl)=C/c1ccc([N+](=O)[O-])cc1)C(=O)Nc1cccc(C(=O)O)c1 |  | inconclusive: 79.4 µM [inhibitor, single point]
CC(C)(C)S(=O)N1Cc2cc(=O)n(Cc3ccccc3)cc2[C@@H]1CCO (stereo not given in full) |  | inconclusive: 89.1 µM [inhibitor, single point]
CN(C(=O)c1cccc(NC(=O)Cc2ccc(NC(=O)C3CCN(C(=O)CCc4ccccc4)CC3)cc2)c1)C1CCCCC1 | inactive: -2.52% | 
COC(=O)CCC(=O)OC1(C)C(=O)C2=CN(C3CC3)C(c3ccc(OC)cc3)=CC2=C(Br)C1=O (stereo not given) |  | inconclusive: 44.7 µM [inhibitor, partial curve]
COc1ccc(C(C[N+](=O)[O-])C2(c3ccc(OC)c(OC)c3)C(=O)c3ccccc3C2=O)cc1 (stereo not given) |  | active: 31.6 µM
Cc1ccc(NC(=O)CSc2nnc(Cc3cccn3C)n2-c2ccc(F)cc2)cc1 |  | inconclusive: 1.26 µM [inhibitor, partial curve, poor fit]
CN1CCN(C2=C(Cl)C(=O)c3ccccc3C2=O)CC1 |  | active: 50.1 µM
COc1ccc(Cl)cc1C(=O)NNC(=O)c1nn(C)c(=O)c2ccccc12 | inactive: -5.58% | 
NC(=O)c1c(NC(=O)CCCC(=O)O)sc2c1CCCCCC2 |  | inconclusive: 56.2 µM [inhibitor, partial curve, poor fit]
O=C(NCCc1ccccc1)c1ccc(CSc2nc3cccnc3n2Cc2ccccc2)cc1 | inactive: -4.82% | 
c1cc2c(cc1-c1csc(NNC3=NCCCCC3)n1)OCCO2 |  | inconclusive: 39.8 µM [inhibitor, single point]
COc1ccccc1NC(=O)Cc1nnc(SCC(=O)Nc2ccccc2F)n1C |  | inconclusive: 39.8 µM [inhibitor, single point]

Single records (already shown):
`N#CCSc1nc2[nH]ncc2c(=O)n1-c1ccccc1Br` in the list: Potency: inconclusive: 28.2 µM [inhibitor, single point]
`CCc1ccccc1N(CC)C(=O)C(=O)Nc1ccc2nc3n(c(=O)c2c1)CCCCC3` in the list: max response, negative = inhibition: inactive: 2.05%

(further entries)

Compound | max response, negative = inhibition | Potency
CS(=O)(=O)c1ccc2nc(NC(=O)c3ccccc3Cl)sc2c1 |  | inconclusive: 100 µM [inhibitor, single point]
O=C1OC(c2ccc3ccccc3c2O)(c2ccc3ccccc3c2O)c2ccccc21 |  | inconclusive: 28.2 µM [inhibitor, full curve, poor fit]
COc1ccc(OC)c(NC(=O)CSc2nnc(Cc3cccn3C)n2CCc2ccccc2)c1 | inactive: 2.64% | 
CCOC(=O)c1sc(N2C(=O)C(O)=C(C(=O)c3ccco3)C2c2ccc(C)o2)nc1C (stereo not given) |  | inconclusive: 89.1 µM [inhibitor, partial curve]
c1ccc(C(c2ccccc2)N2CCCC3(CCNCC3)C2)cc1 |  | inconclusive: 89.1 µM [inhibitor, single point]
COCCNS(=O)(=O)c1cc(-c2nn3c(C)nnc3c3ccccc23)ccc1C |  | inconclusive: 35.5 µM [inhibitor, partial curve, poor fit]
NC(=O)c1ccc(NC(=O)CSC(=O)c2ccccc2)cc1 |  | inconclusive: 89.1 µM [inhibitor, single point]
Cc1ccc(-c2nc3ccccc3s2)cc1NC(=S)NC(=O)/C=C/c1ccco1 |  | inconclusive: 89.1 µM [inhibitor, partial curve, poor fit]
N=C1/C(=C/c2cccn2Cc2ccc(Cl)cc2)C(=O)N=C2SC=CN12 | inactive: 6.72% | 
COC(=O)c1c(-c2ccc(Cl)cc2)noc1N1CCN(c2ccccc2F)CC1 |  | inconclusive: 89.1 µM [inhibitor, partial curve, poor fit]
Nc1cc(N2CCOCC2)c(Cl)cc1[N+](=O)[O-] |  | inconclusive: 70.8 µM [inhibitor, partial curve, poor fit]
O=c1[nH]nc(N2CCOCC2)c(=O)[nH]1 |  | inconclusive: 20 µM [inhibitor, partial curve, poor fit]
COc1ccc(N(Cc2cc(=O)[nH]c3ccccc23)C(=O)CCl)cc1 |  | inconclusive: 15.8 µM [inhibitor, single point]
CS(=O)(=O)N1CCN(c2ccc([N+](=O)[O-])cc2C(F)(F)F)CC1 |  | inconclusive: 100 µM [inhibitor, single point]
Nc1ccc(S(=O)(=O)Nc2nc3ccccc3o2)cc1 | inactive: 4.32% | 
CCOC(=S)SCC(=O)Nc1nc(C)c(C)s1 |  | inconclusive: 89.1 µM [inhibitor, single point]
O=C(CSc1nc2c([nH]c3ccccc32)c(=O)n1-c1ccc(F)cc1)N1CCCc2ccccc21 | inactive: 6.29% | 
O=C1CC2C(=O)NCCN2C(=NC(=O)c2ccc(Cl)cc2)N1 (stereo not given) |  | inconclusive: 89.1 µM [inhibitor, single point]
O=C(Nc1ccccc1C(=O)O)c1cccc(NS(=O)(=O)c2ccc(Br)cc2)c1 |  | inconclusive: 50.1 µM [inhibitor, partial curve, poor fit]
Cc1n[nH]c(=O)c2c(NC(=O)CSc3nncn3C(C)C)oc(C)c12 | inactive: 8.66% | 
CC1CC(C)CN(c2cc(N(C)CCO)c([N+](=O)[O-])c3nonc23)C1 (stereo not given) | inactive: -6.45% | 
